Measured values reported in paper PMC6611850.
Results are given in words; binding and its absence hold for the method and conditions named. Some binding calls cover weakened binding; strength is not graded here.

B1: T. thermophilus RNAP alpha subunit (protein, UniProt Q5SHR6 1-315)
chain: MLDSKLKAPVFTVRTQGREYGEFVLEPLERGFGVTLGNPLRRILLSSIPGTAVTSVYIEDVLHEFSTIPGVKEDVVEIILNLKELVVRFLNPSLQTVTLLLKAEGPKEVKARDFLPVADVEIMNPDLHIATLEEGGRLNMEVRVDRGVGYVPAEKHGIKDRINAIPVDAVFSPVRRVAFQVEDTRLGQRTDLDKLTLRIWTDGSVTPLEALNQAVEILREHLTYFSNPQAAAVAAPEEAKEPEAPPEQEEELDLPLEELGLSTRVLHSLKEEGIESVRALLALNLKDLKNIPGIGERSLEEIKEALEKKGFTLKE
B2: T. thermophilus RNAP omega subunit (protein, UniProt Q8RQE7 1-99)
chain: MAEPGIDKLFGMVDSKYRLTVVVAKRAQQLLRHGFKNTVLEPEERPKMQTLEGLFDDPNAVTWAMKELLTGRLVFGENLVPEDRLQKEMERLYPVEREE

The molecules below were run against T. thermophilus RNAP beta' subunit with a C-terminal 10xHis tag (T. thermophilus HB8) (UniProt Q8RQE8) (assay: co-purification (Ni-NTA affinity, SEC), SDS-PAGE; RNAP captured from T. thermophilus HB8rpoC::10H lysate by the C-terminal 10xHis tag on β´ (500 mM NaCl), then SEC on Superdex 200 Increase).

Row | Molecule | binding
1 | T. thermophilus RNAP beta subunit (from UniProt Q8RQE9 1-1119) | binds
2 | B1 | binds
3 | B2 | binds
